# About 4,300 (3.1%) of roughly 140,000 compounds were called active. Inconclusive results, whose numbers are uncertain, are shown with a selection of clear calls.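 The calls were made as follows: active = readout at or below -70, meaning at least 70% loss of cells showing the perinucleolar compartment, a nuclear body marking cancer cells; inconclusive = readout between -30 and a set limit; inactive = the rest.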
# Assay: High Content Assay for Compounds that inhibit the Assembly of the Perinucleolar Compartment;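 also: plate controls were DMSO wells for no effect and camptothecin positive control wells for full effect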
# Details: PC3M PTB-GFP, PNC prevalence imaging, 16 h; at 10 µM; stronger effect = lower value
# In short: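 PC3M cells stably expressing PTB-GFP, 750–1000 cells/well, treated 16 h at 37 °C with compound (23 nl of library stock), in duplicate. After paraformaldehyde fixation and Hoechst stain, imaged at 20x; PNC prevalence scored by image analysis.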
row,SMILES,"activity change (PNC), negative = inhibition"
1,CCOc1ccc(C(=O)Nc2ccccc2-c2ccccc2)cc1Cl,inactive: -21.1%
2,CC(C)C(=O)N1CCN(c2ccc([N+](=O)[O-])c(NC(C)c3ccccc3)c2)CC1 (stereo unspecified),inactive: -1.82%
3,CCC(C(=O)Nc1ncccn1)(C(F)(F)F)C(F)(F)F,inconclusive: -34.8%
4,Clc1ccc(-c2nnc3ccccn23)cc1,inconclusive: -51.9%
5,Cc1cc(C)nc(SCc2cn3cc(Cl)ccc3n2)n1,inconclusive: -41.6%
6,O=C(CCCN1C(=O)c2ccccc2C1=O)NCC1CCCO1 (stereo unspecified),inconclusive: -62.2%
7,CCN(CC)c1ccc(/C=c2\sc3nnc(-c4ccccc4Cl)n3c2=O)cc1,inconclusive: -56%
8,CCCn1c(SCCc2ccccc2)nc2c1c(=O)[nH]c(=O)n2C,inactive: -21.2%
9,Cc1cc(NC(=O)CN2CC3CC(C2)c2cccc(=O)n2C3)nc2c1c(=O)oc1ccccc12 (stereo unspecified),inconclusive: -52.6%
10,CC(C)(C)N(NC(=O)OCc1ccccc1)C(=O)c1ccccc1Cl,inactive: -16.8%
11,CCCCCOC(=O)C1=C(C)NC(=O)NC1c1ccccc1OCC (stereo unspecified),inconclusive: -46.2%
12,CCOC(=O)c1ccc(-n2c(=S)sc3c(=O)[nH]c(C)nc32)cc1,inconclusive: -68%
13,Cc1cc(C)n(C(C[N+](=O)[O-])c2ccc(Cl)cc2)n1 (stereo unspecified),inconclusive: -50.5%
14,O=C(NNC(=O)C1CCCCC1)C(=O)NC1CCCCC1,inactive: -13.3%
15,CCCCc1n[nH]c2c1/C(=N/O)CC(C)(C)C2,inconclusive: -32.5%
16,O=C(Nc1cccc(-c2nc3ccccc3s2)c1)c1cc(=O)c2ccccc2o1,inconclusive: -47.7%
17,COc1ccc(NC(=O)CC(=O)Nc2ccc(OC)cc2OC)c(OC)c1,active: -127%
18,COc1cc(/C=C/C(=O)NCCN2CCOCC2)cc(OC)c1OC,inconclusive: -32.3%
19,O=C(NCc1ccccc1)N1CCN(c2ccc(Cl)c(Cl)c2)CC1,inconclusive: -31.9%
20,C=CCC(Nc1ccccc1)C12C=CC(O1)C(C(=O)OC)=C2C(=O)OC (stereo unspecified),inconclusive: -65%
21,O=C(Cn1cnc([N+](=O)[O-])c1)Nc1cc(Oc2ccc(Cl)cc2Cl)cc([N+](=O)[O-])c1,inactive: -11.3%
22,Cc1ccc(-c2nnc(N(C)C(=O)c3cccnc3)s2)cc1,inconclusive: -30.4%
23,O=C(Nc1nccs1)C1CCCN(S(=O)(=O)c2cccnc2)C1 (stereo unspecified),inconclusive: -30.5%

row,SMILES,"activity change (PNC), negative = inhibition"
1,c1ccc2c(-n3cccn3)cccc2c1,inactive: 15.7%
2,CCC(=O)N1CCN(c2ccc(NC(=O)c3ccc(Br)o3)cc2)CC1,active: -93.7%
3,CC(C)CN1C(=O)/C(=C/c2ccco2)NC1=S,inconclusive: -43%
4,CC(C)c1ccccc1NC(=O)COC(=O)Cc1ccsc1,inconclusive: -55.9%
5,COCC(=O)Nc1ccc([N+](=O)[O-])cc1C,inactive: 40.1%
6,Cc1ccc(NC(=S)N/N=C/c2ccc(OCCC(C)C)cc2)c(C)c1,inconclusive: -72.5%
7,COCCOC(=O)C1=C(C)NC(=S)NC1/C=C/c1ccccc1 (stereo unspecified),inactive: 18.4%
8,O=C(NCCc1ccccc1)c1nc2ncccn2n1,inconclusive: -38.9%
9,CC1CCCN(c2ccc(C(=O)Nc3nnc(C4CC4)s3)cc2[N+](=O)[O-])C1 (stereo unspecified),inconclusive: -38.3%
10,O=C1c2ccccc2C(=O)N1CCn1c(=O)oc2ccccc21,inconclusive: -40.4%
11,CCOC(=O)CC(NC(=O)c1cc2cc(Cl)cc(Cl)c2oc1=O)c1cccc([N+](=O)[O-])c1 (stereo unspecified),inconclusive: -48.2%
12,O=C(c1ccc(N2CCCCCC2)c([N+](=O)[O-])c1)N1CCc2ccccc21,inactive: -7.12%
13,COc1ccc(-c2nc(CSCC(=O)N3CCN(C(=O)c4ccco4)CC3)c(C)o2)cc1OC,inconclusive: -34.5%
14,Cn1c(CCCOc2ccc(Cl)cc2Cl)nnc1SCC(=O)Nc1cccc(F)c1,inconclusive: -35.4%
15,CC(=O)NN1C(=O)/C(=C/c2ccc(Br)o2)SC1=S,inactive: 31.7%
16,O=[N+]([O-])c1cccc(/C=N/n2c(C3CCCCC3)n[nH]c2=S)c1,inactive: 20.2%
17,CN(Cc1ccccc1)C(=O)CSc1nc2ccccc2c(=O)n1Cc1ccco1,inconclusive: -69.8%
18,CCOC(=O)C1=C(C)OC(N)=C(C#N)C1c1cc(OC)c2c(c1)OCO2 (stereo unspecified),inconclusive: -42%
19,O=C(Nc1ccc(Br)cc1)c1ccc(Br)c(S(=O)(=O)Nc2cccnc2)c1,inconclusive: -61.6%
20,CN1C(=O)C(O)(C2COC(C)(C)CC2=O)c2ccccc21 (stereo unspecified),inconclusive: -75.8%
21,Cc1ccccc1OCC(=O)N/N=C/c1ccncc1,inconclusive: -56.3%
22,O=C(COC(=O)c1cc(-c2cccs2)nc2ccccc12)NCc1ccco1,inconclusive: -36.8%
23,C=CCNC(=O)CN(c1ccc(F)c(Cl)c1)S(C)(=O)=O,inconclusive: -36.3%

row,SMILES,"activity change (PNC), negative = inhibition"
1,CC1=CC(C)(C)Nc2ccc(OS(=O)(=O)c3ccc(C)cc3)cc21,inactive: -15.4%
2,O=S(=O)(NCc1ccco1)c1ccc(S(=O)(=O)N2CCCCC2)cc1,inconclusive: -37%
3,CCC(=O)n1nc(-c2ccco2)nc1SCc1ccccc1,inconclusive: -58.8%
4,O=C(O)CSc1nc(SCc2ccccc2Cl)nc2c1CCCC2,inconclusive: -30.9%
5,O=C(c1cccc(C(=O)N2CCN(Cc3ccccc3)CC2)c1)N1CCN(Cc2ccccc2)CC1,inconclusive: -45.1%
6,O=C(CSc1nnc(-c2ccc(S(=O)(=O)N3CCOCC3)cc2)o1)c1ccccc1F,inconclusive: -74.3%
7,CC(CCc1ccccc1)NC(=O)c1ccncc1 (stereo unspecified),inconclusive: -57.1%
8,OCCCCNCc1ccc(OCc2ccc(Cl)cc2Cl)cc1,inconclusive: -38.9%
9,O=C(CN1CCN(c2ccccc2)CC1)N1CCc2[nH]c3ccccc3c2C1,inactive: -22.1%
10,Cc1ccc(/C=C/C(=O)Nc2cc(=O)n(C)c(=O)n2C)o1,inactive: -12.1%
11,CCCCN(CCCC)S(=O)(=O)c1ccc(NC(=O)c2ccc([N+](=O)[O-])cc2Cl)cc1,inconclusive: -47.5%
12,Cc1ccc(OCc2cn3cccnc3n2)cc1,inconclusive: -31.1%
13,COc1ccc(N2CC(=O)N(c3ccccc3)C2=S)cc1,inconclusive: -31.9%
14,O=C(Nc1nncs1)c1ccc(Br)c(S(=O)(=O)N2CCCC2)c1,inconclusive: -41.1%
15,COc1ccccc1NC(=O)Cn1cnc2sc(C)c(S(=O)(=O)N3CCCCC3)c2c1=O,active: -113%
16,COC(=O)c1cnn(C(=O)c2ccccc2Br)c1N,inconclusive: -38.9%
17,CCOC(=O)N1CCC2(CC1)CC(=O)c1cc(O)ccc1O2,inconclusive: -30.1%
18,CN1CCN(C(=O)CCCOc2ccc(Cl)cc2Cl)CC1,inactive: -13.1%
19,COC(=O)c1ccc(CSc2nccn2C)cc1,inconclusive: -46.8%
20,O=C(NCCN1CCN(Cc2ccccc2)CC1)C1c2ccccc2C(=O)N2CCc3ccccc3C12 (stereo unspecified),inactive: 90.4%
21,CN(C)N1C(N)=C(C#N)C(c2cccc3ccccc23)C2=C1CC(c1ccccc1)CC2=O (stereo unspecified),inconclusive: -50.9%
22,CC(C)CC(c1nnnn1C(C)C)N1CCN(c2cccc(Cl)c2)CC1 (stereo unspecified),inconclusive: -32.2%
23,CCOc1ccccc1C(=O)Nc1cccc(-c2nnc(-c3ccccc3)o2)c1,inactive: 18.2%

row,SMILES,"activity change (PNC), negative = inhibition"
1,N#Cc1c(/N=C/c2cc3ccccc3s2)sc2c1CCC2,inconclusive: -48%
2,Cc1ccc(C(=O)NCc2cccs2)cc1S(=O)(=O)N1CCCCC1,inactive: 19.2%
3,O=C(NCCC1=CCCCC1)c1ccc([N+](=O)[O-])cc1,inconclusive: -33.7%
4,O=C1c2ccccc2C(Nc2ccc(S(=O)(=O)N3CCOCC3)cc2)N1Cc1ccco1 (stereo unspecified),inconclusive: -41.2%
5,CCOC(=O)N1CCN(S(=O)(=O)c2ccc(C(=O)Nc3ccc4c(c3)C(=O)NC4=O)cc2)CC1,inconclusive: -39.1%
6,Nc1cccc(Cl)c1N1CCOCC1,inactive: 70.6%
7,Cc1ccc(-c2nnc3c(C(F)(F)F)nc4ccccc4n23)cc1,inconclusive: -43.8%
8,CCCCCC(=O)OC(CN1CCCCC1)CN1CCCC1=O (stereo unspecified),inactive: 10.1%
9,O=C(CSc1nnc(CNc2ccccc2)o1)N1CCCc2ccccc21,inconclusive: -43.2%
10,CCOC(=O)c1cc2cc(CC(=O)c3ccc(OCC)cc3O)ccc2o1,inactive: 23.1%
11,CC1=NN(c2ccccc2)C(=O)C1N=Nc1ccc(N)cc1 (stereo unspecified),inactive: 27.2%
12,CCCc1cc(=O)[nH]c(SCc2cccc(C)c2)n1,inactive: 33.6%
13,CC(=O)N/N=C(\C)c1cccc(NC(=O)c2cccs2)c1,inactive: 24.4%
14,Cc1nc(Sc2nnnn2C)c2c3c(sc2n1)CCC3,inconclusive: -44.8%
15,CS(=O)(=O)N1CCN(Cc2ccccc2C(F)(F)F)CC1,inactive: -0.522%
16,CCNC(=O)CC1SC(=Nc2cccc(Cl)c2C)N(C)C1=O (stereo unspecified),inconclusive: -46.2%
17,Cc1cc2cc(C=O)c(Cl)nc2cc1C,inconclusive: -36.8%
18,Cc1[nH]c(=O)[nH]c(=O)c1S(=O)(=O)N(C)Cc1ccccc1,active: -106%
19,O=C(N/N=C/c1ccccc1F)c1ccc(COc2ccccc2Cl)o1,inconclusive: -67.1%
20,CC1(C)Cc2c(sc3nc(-c4ccccc4)oc(=O)c23)CO1,inconclusive: -55.9%
21,CN1CCN(CC(=O)N2CCn3c4c(c5cc(C6CCCCC6)ccc53)CCCC42)CC1 (stereo unspecified),inconclusive: -55%
22,O=C(Nc1nccs1)C1CCN(S(=O)(=O)c2ccc3c(c2)OCCCO3)CC1,inconclusive: -43%

# Six neighbouring entries out of the list so far, quoted:
row,SMILES,"activity change (PNC), negative = inhibition"
11,CC1=NN(c2ccccc2)C(=O)C1N=Nc1ccc(N)cc1 (stereo unspecified),inactive: 27.2%
12,CCCc1cc(=O)[nH]c(SCc2cccc(C)c2)n1,inactive: 33.6%
13,CC(=O)N/N=C(\C)c1cccc(NC(=O)c2cccs2)c1,inactive: 24.4%
14,Cc1nc(Sc2nnnn2C)c2c3c(sc2n1)CCC3,inconclusive: -44.8%
15,CS(=O)(=O)N1CCN(Cc2ccccc2C(F)(F)F)CC1,inactive: -0.522%
16,CCNC(=O)CC1SC(=Nc2cccc(Cl)c2C)N(C)C1=O (stereo unspecified),inconclusive: -46.2%
